# Test results taken from the supplement of paper PMC9135407.
# “And” between values parts separate entries of the source, which are not always exact repeats. Equal entries are not always repeated. Structures can show the parent of a compound that is named as a salt. ± gives the standard deviation of the averaged measurements. Some of the results follow. Plates or batches differ in their baseline, so values are only roughly comparable.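 Primary human stellate myofibroblasts activated in culture; inactivation shown by regained lipid droplets. Readout: fraction of Hoechst-counted cells exceeding a per-plate Bodipy threshold, duplicate wells, each plate with DMSO negative and nortriptyline positive controls. Hits: control-normalized score beyond the plate's top-tenth-percentile nortriptyline wells, or among its three best wells. Final well concentrations unstated.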
# System: primary human hepatic stellate cells (donor 1)
# Assay: percent Bodipy-positive cells; higher = more lipid droplet accumulation
# Details: 48 h
# [1] = library stock concentration: 10 mM
# [2] = library stock concentration: 3.33 mM
# [3] = library stock concentration: 2 mM
compound,measurement,setting,value
CN1CC[C@]23c4ccccc4N[C@H]1[C@]21CCN(C)[C@H]3Nc2ccccc21 [Calycanthine],percent Bodipy-positive cells,,45 ± 6.8%
COc1ccccc1OCCNCC(O)COc1cccc2[nH]c3ccccc3c12 (configuration not stated) [Carvedilol],percent Bodipy-positive cells,[1],97.6 ± 2.4%
Br.NC(=O)C(c1ccccc1)(c1ccccc1)[C@@H]1CCN(CCc2ccc3c(c2)CCO3)C1,percent Bodipy-positive cells,[1],90.6 ± 0.33%
OC[C@H]1O[C@@H](Oc2cc(O)cc(/C=C/c3ccc(O)cc3)c2)[C@H](O)[C@@H](O)[C@@H]1O,percent Bodipy-positive cells,[1],9.55 ± 1.7%
Cc1c[nH]c(-c2cnc(NCCNc3ccc(C#N)cn3)nc2-c2ccc(Cl)cc2Cl)n1.Cl,percent Bodipy-positive cells,[1],77 ± 2.2%
COc1ccc(C2CNC(=O)C2)cc1OC1CCCC1 (stereo not drawn) [S- (+)-Rolipram],percent Bodipy-positive cells,[2],4.83 ± 3%
same,percent Bodipy-positive cells,[1],13.5 ± 1.9%
COc1ccc(C2CNC(=O)C2)cc1OC1CCCC1 (configuration not stated),percent Bodipy-positive cells,[1],10.3 ± 0.15%
COc1ccc(C2CNC(=O)C2)cc1OC1CCCC1 (configuration not stated) [Rolipram],percent Bodipy-positive cells,,9.97 ± 6.6%
same,percent Bodipy-positive cells,[2],8.29 ± 8.6%
same,percent Bodipy-positive cells,library stock concentration: 7.3 mM,12.3 ± 3.9%
same,percent Bodipy-positive cells,[1],9.8% and 14.2% and 7.41%
same,percent Bodipy-positive cells,library stock concentration: 18.2 mM,11.4 ± 3.7%
CC[N+]1(C)C2CCC1CC(OC(=O)C1CCC(C(=O)OC3CC4CCC(C3)[N+]4(C)CC)(c3ccccc3)c3ccccc31)C2 (stereo not drawn) [beta- Belladonnine dichloroethylate],percent Bodipy-positive cells,,8.55 ± 2.8%
O=c1c(O)c(-c2ccc(O)cc2O)oc2cc(O)cc(O)c12 [Morin Hydrate],percent Bodipy-positive cells,[2],5.92 ± 0.3%
same,percent Bodipy-positive cells,[1],14 ± 2.2%
O=c1c(O)c(-c2ccc(O)cc2O)oc2cc(O)cc(O)c12 [Morin],percent Bodipy-positive cells,[1],26.5% and 20.9%
Nc1c(S(=O)(=O)O)cc(Nc2cccc3ccccc23)c2c1C(=O)c1ccccc1C2=O,percent Bodipy-positive cells,[1],2.38 ± 1.5%
CCOC(=O)Oc1c(OC)cc(C(=O)O[C@@H]2C[C@@H]3CN4CCc5c([nH]c6cc(OC)ccc56)[C@H]4C[C@@H]3[C@H](C(=O)OC)[C@H]2OC)cc1OC [Syrosingopine],percent Bodipy-positive cells,,60.3 ± 24%
COc1ccc(F)c(F)c1C(=O)c1cnc(NC2CCN(S(C)(=O)=O)CC2)nc1N,percent Bodipy-positive cells,[2],44.2 ± 16%
same,percent Bodipy-positive cells,[1],48.3 ± 2.4%
CCCCC(F)(F)[C@@]1(O)CC[C@H]2[C@@H](CC(=O)[C@@H]2CCCCCCC(=O)O)O1 [Lubiprostone],percent Bodipy-positive cells,[2],9.25 ± 2.7%
same,percent Bodipy-positive cells,[1],15.9 ± 8.2%
Oc1ccc([C@@H]2CNCc3sccc32)cc1O,percent Bodipy-positive cells,[1],21.3 ± 4.1%
O=C1OCCN1/N=C/c1ccc([N+](=O)[O-])o1 [Furazolidone],percent Bodipy-positive cells,,8.18 ± 3.1%
same,percent Bodipy-positive cells,library stock concentration: 8.9 mM,3.079 ± 0.021%
same,percent Bodipy-positive cells,[1],8.35 ± 0.74%
NC(=O)c1ccc([N+](=O)[O-])cc1Cl [Aklomide],percent Bodipy-positive cells,[1],26.8 ± 7.7%
CC(C)[C@H](N)C(=O)OCC(CO)OCn1cnc2c(=O)nc(N)[nH]c21 (some centres not stated),percent Bodipy-positive cells,[1],45.2 ± 4.2%
CCOC(=O)[C@H](CCc1ccccc1)N[C@H]1CS[C@H](c2cccs2)CN(CC(=O)O)C1=O [Temocapril HCl],percent Bodipy-positive cells,[2],19.2 ± 17%
same,percent Bodipy-positive cells,[1],16.3 ± 1.2%
O=C1NC(=O)/C(=C/c2ccc3nccnc3c2)S1,percent Bodipy-positive cells,library stock concentration: 80 uM,12.9 ± 0.74%
same,percent Bodipy-positive cells,library stock concentration: 400 uM,10.7 ± 0.2%
same,percent Bodipy-positive cells,[3],14 ± 2.3%
same,percent Bodipy-positive cells,[1],6.38 ± 1%
c1ccc([C@H]2CN3CCSC3=N2)cc1 [Levamisole hydrochloride],percent Bodipy-positive cells,,33.3 ± 5.4%
same,percent Bodipy-positive cells,library stock concentration: 8.3 mM,15 ± 1.9%
same,percent Bodipy-positive cells,[1],43.6 ± 4.2%
CCCCC/C=C\C=C\[C@@H](O)CCCCCCCC(=O)O,percent Bodipy-positive cells,library stock concentration: 100 uM,10.9 ± 12%
O=C1C[C@@H](c2ccc(O)cc2)Oc2cc(O)cc(O)c21 [Naringenin],percent Bodipy-positive cells,[2],7.96 ± 1%
same,percent Bodipy-positive cells,[1],15.2 ± 1.5%
O=C1C[C@@H](c2ccc(O)cc2)Oc2cc(O)cc(O)c21 [Naringenine],percent Bodipy-positive cells,,54.6 ± 32%
CCC(=O)O[C@]1(C(=O)CCl)[C@@H](C)C[C@H]2[C@@H]3CCC4=CC(=O)C=C[C@]4(C)[C@@]3(F)[C@@H](O)C[C@@]21C [Clobetasol propionate],percent Bodipy-positive cells,,13.9 ± 1.9%
same,percent Bodipy-positive cells,[2],10.1 ± 6.3%
same,percent Bodipy-positive cells,[1],17.6% and 25.4%
"Cc1ccc(NC(=O)c2ccc(CN3CCN(C)CC3)cc2)cc1Nc1nc(-c2cccnc2)cs1 [Masitinib (AB1010, Masivet) (2 mM)]",percent Bodipy-positive cells,[3],92.5 ± 5.8%
O=S(=O)(O)c1cc(O)ccc1O [Ethamsylate],percent Bodipy-positive cells,,8.17 ± 4.3%
same,percent Bodipy-positive cells,[2],14.2 ± 7.4%
same,percent Bodipy-positive cells,[1],34.3 ± 10%
Cc1c(O)c(=O)ccn1C,percent Bodipy-positive cells,[1],13.6% and 27.7%
CC(C)C[C@H](NP(=O)(O)O[C@H]1O[C@H](C)[C@@H](O)[C@H](O)[C@@H]1O)C(=O)N[C@@H](Cc1c[nH]c2ccccc12)C(=O)O [Phosphoramidon disodium],percent Bodipy-positive cells,[1],16.2 ± 1.4%
CC(C)NCC(O)c1ccc2ccccc2c1 (configuration not stated) [Pronethalol HCl],percent Bodipy-positive cells,library stock concentration: 8.7 mM,32.1 ± 7.8%
CC(C)NCC(O)c1ccc2ccccc2c1 (configuration not stated) [Pronethalol hydrochloride],percent Bodipy-positive cells,,39.6 ± 5.7%
same,percent Bodipy-positive cells,[1],27.5 ± 7.2%
CC(C)NCC(O)c1ccc2ccccc2c1 (configuration not stated) [Pronetalol hydrochloride],percent Bodipy-positive cells,[1],51.9 ± 11%
CS(=O)(=O)CCNCc1ccc(-c2ccc3ncnc(Nc4ccc(OCc5cccc(F)c5)c(Cl)c4)c3c2)o1.Cc1ccc(S(=O)(=O)O)cc1.Cc1ccc(S(=O)(=O)O)cc1,percent Bodipy-positive cells,[1],98.641 ± 0.0064%
CC(C)(C)c1nc2c3cc[nH]c(=O)c3c3cc(F)ccc3c2[nH]1 [Merck -5 (2 mM)],percent Bodipy-positive cells,[3],16.5 ± 6.6%

# Reformatted: entries from further up
compound	measurement	setting	value
COc1ccc(F)c(F)c1C(=O)c1cnc(NC2CCN(S(C)(=O)=O)CC2)nc1N	percent Bodipy-positive cells	[1]	48.3 ± 2.4%
CCCCC(F)(F)[C@@]1(O)CC[C@H]2[C@@H](CC(=O)[C@@H]2CCCCCCC(=O)O)O1 [Lubiprostone]	percent Bodipy-positive cells	[2]	9.25 ± 2.7%
same	percent Bodipy-positive cells	[1]	15.9 ± 8.2%
Oc1ccc([C@@H]2CNCc3sccc32)cc1O	percent Bodipy-positive cells	[1]	21.3 ± 4.1%
O=C1OCCN1/N=C/c1ccc([N+](=O)[O-])o1 [Furazolidone]	percent Bodipy-positive cells		8.18 ± 3.1%
same	percent Bodipy-positive cells	library stock concentration: 8.9 mM	3.079 ± 0.021%
same	percent Bodipy-positive cells	[1]	8.35 ± 0.74%
NC(=O)c1ccc([N+](=O)[O-])cc1Cl [Aklomide]	percent Bodipy-positive cells	[1]	26.8 ± 7.7%
CC(C)[C@H](N)C(=O)OCC(CO)OCn1cnc2c(=O)nc(N)[nH]c21 (some centres not stated)	percent Bodipy-positive cells	[1]	45.2 ± 4.2%
CCOC(=O)[C@H](CCc1ccccc1)N[C@H]1CS[C@H](c2cccs2)CN(CC(=O)O)C1=O [Temocapril HCl]	percent Bodipy-positive cells	[2]	19.2 ± 17%
same	percent Bodipy-positive cells	[1]	16.3 ± 1.2%
O=C1NC(=O)/C(=C/c2ccc3nccnc3c2)S1	percent Bodipy-positive cells	library stock concentration: 80 uM	12.9 ± 0.74%
same	percent Bodipy-positive cells	library stock concentration: 400 uM	10.7 ± 0.2%
